Data as given in PMC5269740.
Results are given in words; binding and its absence hold for the method and conditions named. In cells and extracts the contact can be indirect. Some entries that bind do so weakly or less than the wild type.

Target: T1, receptor activator of nuclear factor-κB (RANK) (mouse (endogenous in BMMs of C57BL/6 mice)) (UniProt O35305)
T1 sequence: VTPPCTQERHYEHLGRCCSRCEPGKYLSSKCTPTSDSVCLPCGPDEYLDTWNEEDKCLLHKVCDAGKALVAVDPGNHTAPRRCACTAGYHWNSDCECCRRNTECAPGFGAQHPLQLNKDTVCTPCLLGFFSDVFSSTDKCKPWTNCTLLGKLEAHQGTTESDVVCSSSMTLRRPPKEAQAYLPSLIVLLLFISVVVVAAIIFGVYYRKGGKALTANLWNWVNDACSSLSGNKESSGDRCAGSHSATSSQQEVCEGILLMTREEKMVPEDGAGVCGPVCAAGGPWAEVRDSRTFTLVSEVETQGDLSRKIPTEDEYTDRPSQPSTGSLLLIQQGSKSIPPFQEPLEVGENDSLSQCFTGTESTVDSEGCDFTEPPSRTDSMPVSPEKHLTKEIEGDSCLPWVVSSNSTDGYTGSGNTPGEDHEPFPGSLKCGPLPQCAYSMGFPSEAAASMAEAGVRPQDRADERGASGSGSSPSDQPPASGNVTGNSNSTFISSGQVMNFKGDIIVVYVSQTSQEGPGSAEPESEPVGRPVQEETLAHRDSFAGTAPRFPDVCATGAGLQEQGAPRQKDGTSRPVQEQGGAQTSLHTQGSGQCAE
Assay: co-IP; lysates of BMMs (IP lysis buffer) precipitated with anti-RANK antibody at 4 °C overnight and protein A sepharose beads, blotted with anti-TRAF6; cells pre-treated with or without 100 ng/ml IL-6 and 100 ng/ml sIL-6R for 4 h, then stimulated with 10 or 50 ng/ml RANKL for 0, 5, 15 or 30 min

B1: TNF receptor associated factor 6 (TRAF6) (protein, UniProt P70196 1-530)
chain: MSLLNCENSCGSSQSSSDCCAAMAASCSAAVKDDSVSGSASTGNLSSSFMEEIQGYDVEFDPPLESKYECPICLMALREAVQTPCGHRFCKACIIKSIRDAGHKCPVDNEILLENQLFPDNFAKREILSLTVKCPNKGCLQKMELRHLEDHQVHCEFALVNCPQCQRPFQKCQVNTHIIEDCPRRQVSCVNCAVSMAYEEKEIHDQSCPLANIICEYCGTILIREQMPNHYDLDCPTAPIPCTFSVFGCHEKMQRNHLARHLQENTQLHMRLLAQAVHNVNLALRPCDAASPSRGCRPEDPNYEETIKQLESRLVRQDHQIRELTAKMETQSMYVGELKRTIRTLEDKVAEMEAQQCNGIYIWKIGNFGMHLKSQEEERPVVIHSPGFYTGRPGYKLCMRLHLQLPTAQRCANYISLFVHTMQGEYDSHLPWPFQGTIRLTILDQSEALIRQNHEEVMDAKPELLAFQRPTIPRNPKGFGYVTFMHLEALRQGTFIKDDTLLVRCEVSTRFDMGGLRKEGFQPRSTDAGV
binding: binds
